Data reported in publication PMC6962373, “Combinatorial allosteric modulation of agonist response in a self-interacting G-protein coupled receptor” (Communications Biology, 2020).

Tested on: HEK293 cells expressing mS1PR1-eGFP
Assay: Confocal microscopy count of cytosolic eGFP+ clusters (receptor internalisation), mS1PR1-eGFP
Assay type: cell-based, human
Details: 0.1 µM, 20 min
Description: Cells expressing S1PR1-eGFP or mS1PR1-eGFP were plated onto poly-L-lysine-coated 8 well µ-slides (Ibidi) at 3 × 10^4 cell/well. […] Images were deconvoluted using Huygens Professional Software (Scientific Volume Imaging). Mid-plane z-sections were used for counting cytosolic GFP^+ vesicles in cells stimulated for 20 min. Confocal imaging was performed at the Advanced Light and Electron Microscopy Bioimaging Centre of IRCCS San Raffaele Scientific Institute. We used a custom Matlab script (Supplementary Data 1) performing the following image analysis: (i) the membranes were segmented from the image, identifying regions of both absolute and local high intensity (Supplementary Fig. 9A–G) in order to include all the membranes independently of their intensity; (ii) morphological erosion was used to clear small objects and to smooth the edges of the identified membranes (Supplementary Fig. 9H, I); (iii) the region of interest was defined as the region completely enclosed by a membrane (Supplementary Fig. 9J, K); (iv) GFP^+ cytosolic vesicles were identified as local intensity maxima (Supplementary Fig. 9L–O) within the region of interest and counted. Experiments were replicated independently three times. The number of vesicles from 40 to 150 cells were counted as detailed in Fig. 4 legend and the statistical analysis performed with the GraphPad Prism software.

For `CCCCCCCCc1ccc(CC[C@](N)(CO)COP(=O)(O)O)cc1` [FTY720-P, FTY720 (S)-phosphate], the “Cohen's d-value, untreated vs. ligand (clusters/cell)” value was 0.35.
In the case of `CCCCCCCCCCCCC/C=C/[C@@H](O)[C@@H](N)COP(=O)(O)O` [S1P, Sphingosine 1-phosphate], the “Cohen's d-value, untreated vs. ligand (clusters/cell)” value is reported as 0.13.
